Tests used:
[1] = pad saturated with 4% lidocaine, 4 cm^2 delivery pad, current 0.12 mA (0-2 h), 0.33 mA (2-4 h), 0.54 mA (4-6 h); all current densities tested
[2] = iontophoresis through intact skin compared with topical delivery; cited from earlier work

Concentration of lidocaine generated in the incision [1]: sufficient to cause anesthesia
Structure (SMILES): CCN(CC)CC(=O)Nc1c(C)cccc1C [lidocaine]
effectiveness as prophylactic treatment for skin anesthesia [2]: more effective than topical delivery

Source: patent publication US8295924B2, “Transdermal systems for the delivery of ionic agents directly to open wounds and surgically repaired incisions” (Teikoku Pharma USA, Inc., priority 2006, dated 2012)
